The assay has as its target His/MKRN1 264–482 (MKRN1 C-terminal fragment) (Homo sapiens, UniProt Q9UHC7). Kind of assay: biochemical.

Chains of the proteins cited; added tags and fusions are not shown. Residues count along the entry.
UniProt Q9UHC7, 264-482: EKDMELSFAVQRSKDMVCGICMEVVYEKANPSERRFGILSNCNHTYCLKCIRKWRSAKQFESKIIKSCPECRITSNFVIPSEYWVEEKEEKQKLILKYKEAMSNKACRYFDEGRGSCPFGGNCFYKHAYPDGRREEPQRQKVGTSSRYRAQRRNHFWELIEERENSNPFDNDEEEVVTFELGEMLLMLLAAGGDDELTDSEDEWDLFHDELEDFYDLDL

For `CC(C)(C)c1ccc(C(=O)CCCN2CCC(OC(c3ccccc3)c3ccccc3)CC2)cc1` [ebastine], the Kd (usually a measure of binding affinity in units of concentration) was found to be 7.6 µM.

The values above are taken from paper PMC11785899 (Cellular and Molecular Life Sciences: CMLS, 2025).
